In PubChem BioAssay AID1461 (National Center for Advancing Translational Sciences (NCATS), 2008):
This is a selection; strong and weak results do not stand in their true shares. Results filed as inconclusive are left out. Activity calls are given as the source filed them. Calls come from the whole dose curve; as a rule, active = well fitted inhibition curve with a large enough effect; inconclusive = small, poorly fitted or top-dose-only effect, or effect the other way; inactive = no such curve, though single readings can be large or run the other way.

The chains behind the UniProt entries cited, without tags or fusion partners. Where a name states a change or a piece, a line headed by the entry shows the natural chain unless it says otherwise.
UniProt Q6W5P4: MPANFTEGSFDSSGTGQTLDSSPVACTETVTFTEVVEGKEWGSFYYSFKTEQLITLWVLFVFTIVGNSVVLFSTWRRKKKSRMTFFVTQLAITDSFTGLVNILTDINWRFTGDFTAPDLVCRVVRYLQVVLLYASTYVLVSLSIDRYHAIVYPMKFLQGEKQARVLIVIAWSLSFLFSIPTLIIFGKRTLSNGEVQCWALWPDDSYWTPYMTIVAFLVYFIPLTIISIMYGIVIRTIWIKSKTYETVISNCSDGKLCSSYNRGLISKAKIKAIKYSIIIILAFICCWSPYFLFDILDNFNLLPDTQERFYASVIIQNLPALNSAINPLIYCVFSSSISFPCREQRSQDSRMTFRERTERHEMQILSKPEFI

The compounds below were run against Neuropeptide S receptor (Homo sapiens) (UniProt Q6W5P4) (assay: qHTS Assay for Antagonists of the Neuropeptide S Receptor: cAMP Signal Transduction). Conditions: CHO-NPSR cells, cAMP TR-FRET, antagonist mode.
Description: NIH Chemical Genomics Center [NCGC] NIH Molecular Libraries Probe Production centers Network [MLPCN] MLPCN Grant: X01-DA026210-01 Assay Submitter (PI): Heilig, Markus Alexander NCGC Assay Overview: Neuropeptide S receptor (NPSR), previously known as GPR154, is a recently de-orphanized G protein coupled receptor. Its endogenous ligand is the 20 amino acids peptide Neuropeptide S (NPS). […] NPS and its receptor are found in various tissues. Specifically they are highly expressed in brain areas that have been implicated in modulation of arousal, stress and anxiety. Central administration of NPS in mice produces an unusual profile of activity by inducing wakefulness and arousal, while at the same time suppressing anxiety. Therefore, NPSR may represent a novel drug target for the treatment of sleep and anxiety disorders. […] This change in intracellular cAMP level can be detected by a homogeneous LANCE cAMP assay based on the TR-FRET (time resolved fluorescence resonance energy transfer) between a europium-labeled cAMP tracer complex and a cAMP-specific antibody labeled with Alexa Fluor 647. […] Both emission signals from the FRET donor (620 nm) and the acceptor (665 nm) can be detected by a plate reader in the TRF mode. Expression of result in fluorescence ratio (665 nm/620 nm) helps to normalize differences due to cell density and reagent dispensing. […]
Note: nearly all actives have a fitted effect of over 50% in size.
Potency is the fitted concentration of half-maximal effect.

Row | Compound | Potency
1 | CN(C)c1ccc2nc3ccc(=[N+](C)C)cc-3sc2c1 | active: 1580 nM
